No constants are given. Whether binding was seen depends on the method and setting. Some entries that bind do so weakly or less than the wild type.
Columns and labels:
[1] = target: purified recombinant OPGL from CHO cells or E. coli (immunogen and ELISA coat of Example 1) (Homo sapiens (Human)) (UniProt O14788); assay: ELISA, plate coated with purified recombinant OPGL
[2] = target: T1, CHO human OPGL (hOPGL) 140 (human, UniProt O14788 140-317); assay: SPR (BIAcore 2000), antibody captured on Protein G
T1 construct: also called CHO hOPGL 140
T1 sequence (looked up): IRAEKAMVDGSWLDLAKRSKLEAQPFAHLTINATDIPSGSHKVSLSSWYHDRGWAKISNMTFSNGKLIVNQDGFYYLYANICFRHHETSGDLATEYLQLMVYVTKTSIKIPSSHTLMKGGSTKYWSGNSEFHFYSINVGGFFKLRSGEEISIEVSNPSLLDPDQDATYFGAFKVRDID

B1: 22B3 anti-OPGL antibody (antibody, human IgG1, kappa, V domains shown)
VH: EVQLVQSGGGLVHPGGSLRLSCEGSGFTFSSNGMHWVRQTPGKGLEWVSGIGTAGGTYYADSVKGRFTISRDNVKKSLYLQMNSLRAEDMAIYYCVRKNWGWFDPWGQGALVTVSS
VL: EIVLTQSPATLSLSPGERATLSCRASQSVNSYLAWFQQKPGQAPRLLIYDASNRATGIPARFSGSGSGTDFTLTISSLEPEDFAIYYCQQRSNWPPFTFGQGTKLEIKR
notes: Fully human IgG1 kappa from HuMab mice
[1]
  binding: binds
[2]
  binding: binds
